Measurements as given in PMC12431657, “Discovery and mechanistic insights of dibenzoylmethane as a broad spectrum inhibitor of coronavirus” (PLOS Pathogens, 2025).
Where a name gives a salt, the structure may show the parent alone. Read-outs that look alike come from different tables or passages of the source. In all, about 3,300 compounds went through this assay and about 60 (2%) showed an effect of 50% or more. Some of the results follow. Numbered stars: 1 amine (or outer) side, 2 acyl side, 3 side chain; on linkers, the order of the positions; unused ones are H or OH. Bridge positions count the residues as written; N and C are the ends. Square brackets hold non-standard residues; d marks the D form. Peptide text beside a SMILES is read from it. * marks the point of attachment. hTyr(3S-OH,4S-OH,3'-OSO3H) = N[C@H](C(=O)O)[C@H](O)[C@@H](O)c1ccc(O)c(OS(=O)(=O)O)c1; Orn(4R-OH,5R-OH) = O=C([C@H](C[C@@H](O)[C@@H](O)N[*:3])N[*:1])[*:2]; NMePhe(4-NMe2) = CN[C@@H](Cc1ccc(N(C)C)cc1)C(=O)O; Pro(3S-OH,4S-Me) = C[C@H]1CN[C@H](C(=O)O)[C@H]1O; Gln(3R-OH) = NC(=O)C[C@@H](O)[C@H](N)C(=O)O; Pip(4-oxo) = O=C1CCN[C@H](C(=O)O)C1; Picolinoyl(3-OH) = O=C(c1ncccc1O)*; Hyp = O=C(O)[C@@H]1C[C@@H](O)CN1; Phg = N[C@H](C(=O)O)c1ccccc1; dAbu = CC[C@@H](N)C(=O)O

Tested on: HCoV-OC43
Parameters: species or system RD; HTS, protection from HCoV-OC43 induced cell death, luminescent cell viability (CellCounting-Lite 2.0), inhibition rate
Details: 24 h post infection, 1 h compound pre-incubation, 10 µM, inhibitor

SMILES	OC43 Inhibition rate (OC43 Inhibition rate, 24 h) [%]	OC43 Inhibition rate [%]
O=c1c(O[C@@H]2O[C@H](CO)[C@@H](O)[C@H](O)[C@H]2O)c(-c2ccc(O)c(O)c2)oc2cc(O)cc(O)c12 [Isoquercitrin]	0.1	–
C=C1CC[C@H]2C[C@@H]1C2(C)C [β-Pinene]	–	0
C[C@@H](O)[C@@H]1NC(=O)[C@@H](N)C[C@@H](O)[C@@H](O)NC(=O)[C@@H]2[C@@H](O)[C@@H](C)CN2C(=O)[C@H]([C@H](O)CC(N)=O)NC(=O)[C@H]([C@H](O)[C@@H](O)c2ccc(O)c(OS(=O)(=O)O)c2)NC(=O)[C@@H]2C[C@@H](O)CN2C1=O [FR179642] (H-[Orn(4R-OH,5R-OH)]T[Hyp][hTyr(3S-OH,4S-OH,3'-OSO3H)][Gln(3R-OH)][Pro(3S-OH,4S-Me)]; lactam 1-C)	–	4.7
C[C@@H]1O[C@@H](OC[C@H]2O[C@@H](Oc3c(-c4ccc(OCCO)c(OCCO)c4)oc4cc(OCCO)cc(O)c4c3=O)[C@H](O)[C@@H](O)[C@@H]2O)[C@H](O)[C@H](O)[C@H]1O [Troxerutin]	–	-0.2
Nc1nc(N)nc(NC2CC2)n1 [Cyromazine]	–	0
COc1cc(-c2cc(=O)c3c(O)cc(O[C@@H]4O[C@H](CO)[C@@H](O)[C@H](O)[C@H]4O[C@@H]4OC[C@](O)(CO)[C@H]4O)cc3o2)ccc1O [3'-Methoxyapiin]	–	0.1
O=C(O)C(=O)Cc1ccc(O)cc1 [4-Hydroxyphenylpyruvic acid]	–	0.9
CCC(C)C(=O)O[C@@H]1[C@@H](OC(C)=O)[C@]2(C)[C@H](C(C)=O)CC[C@@]23O[C@]32CC[C@H]3C[C@@H](O[C@H]4C[C@@H](OC)[C@H](O[C@@H]5O[C@H](C)[C@@H](O)[C@@H](OC)[C@H]5O)[C@@H](C)O4)CC[C@]3(C)[C@@H]12 (some centres unmarked) [Tenacissoside H]	–	1.3
C[C@]12C=CC(=O)C=C1CC[C@H]1[C@@H]3C[C@@H](O)[C@](O)(C(=O)CO)[C@@]3(C)C[C@H](O)[C@@]12F [Triamcinolone]	–	0
C=C1CC[C@@]2(OC1)O[C@H]1C[C@H]3[C@@H]4CC=C5C[C@@H](O)C[C@@H](O)[C@]5(C)[C@H]4CC[C@]3(C)[C@H]1[C@@H]2C [Neoruscogenin]	–	7.4
CCC/C=C\C=C\CCCCCCCCCO [Bombykol]	–	1.1
COc1ccc2c(c1)OC(O)C(=O)N2O (centres unmarked) [DIMBOA]	–	-0.2
COc1c(O)cc2oc(-c3ccc(O)cc3)cc(=O)c2c1O [Hispidulin]	–	-0.2
O=C(O)CC(O)(CC(=O)O)C(=O)O [Lithium citrate (tetrahydrate)]	0.2	–
O=C1O[C@H]([C@@H](O)CO)C(=O)C1=O [Dehydroascorbic acid]	–	2.7
CC(=O)N[C@@H](CCCN=C(N)N)C(=O)O [N-Acetyl-L-arginine]	–	-0.3
CCCCCCCC/C=C\CCCCCCCC(=O)NCc1ccccc1 [N-Benzyloleamide]	–	56.9
Cc1ncc(CO)c(CN)c1O [Pyridoxylamine]	-0.8	–
COc1cc(C2Oc3cc([C@H]4Oc5cc(O)cc(O)c5C(=O)[C@@H]4O)ccc3OC2CO)ccc1O (some centres unmarked) [Silybin]	–	3.3
O=c1cc(-c2ccccc2)oc2cc(O)c(O)c(O)c12 [Baicalein]	–	0.3
C[C@H](CCC(=O)O)[C@H]1CC[C@H]2[C@@H]3[C@H](O)C[C@H]4C[C@H](O)CC[C@]4(C)[C@H]3C[C@H](O)[C@]12C [Allocholic acid]	–	-0.1
C=C1C[C@]2(O)O[C@@]3(CC2=C(C)C)[C@@H](C)CC[C@@H]13 [Isocurcumenol]	–	-0.2
C[C@H]1CC[C@]2(C(=O)O)CC[C@]3(C)C(=CC[C@@H]4[C@@]5(C)CC[C@H](O[C@@H]6OC[C@@H](O)[C@H](O)[C@H]6O[C@@H]6O[C@H](CO)[C@@H](O)[C@H](O)[C@H]6O)C(C)(C)[C@@H]5CC[C@]43C)[C@@H]2[C@]1(C)O [Ilexoside D]	–	5.3
CCCC(=O)OC(CC(=O)[O-])C[N+](C)(C)C (centres unmarked) [Butyrylcarnitine]	–	-8.1
Cc1ccccc1C(=O)O [o-Toluic acid]	–	0.4
COc1cc2oc(-c3ccccc3)cc(=O)c2c(O)c1OC [Mosloflavone]	–	5.1
C[C@@H]1O[C@@H](O[C@H]2[C@H](OC(=O)[C@]34CCC(C)(C)C[C@H]3C3=CC[C@@H]5[C@@]6(C)C[C@H](O)[C@H](O[C@@H]7O[C@H](CO)[C@@H](O)[C@H](O)[C@H]7O)[C@@](C)(CO)[C@@H]6CC[C@@]5(C)[C@]3(C)C[C@H]4O)OC[C@H](O)[C@@H]2O)[C@H](O)[C@H](O)[C@H]1O[C@@H]1OC[C@@H](O)[C@H](O[C@@H]2OC[C@](O)(CO)[C@H]2O)[C@H]1O [Polygalacin D]	–	36.7

SMILES	OC43 Inhibition rate (OC43 Inhibition rate, 24 h) [%]	OC43 Inhibition rate [%]
CC(=O)N[C@@H](CS)C(=O)O [Acetylcysteine]	–	-0.2
C=C[C@@H]1C2=CCOC(=O)C2=CO[C@H]1O[C@@H]1O[C@H](CO[C@@H]2O[C@H](CO)[C@@H](O)[C@H](O)[C@H]2O)[C@@H](O)[C@H](O)[C@H]1O [6'-O-beta-D-Glucosylgentiopicroside]	–	-1.2
COc1ccc(C)cc1 [4-Methylanisole]	–	-0.2
O=C1CCC[C@@H]2[C@H]3CCC[N+]4([O-])CCC[C@@H](CN12)[C@@H]34 (some centres unmarked) [Oxymatrine]	–	-0.6
OC[C@H]1OC[C@H](O)[C@@H](O)[C@@H]1O [1,5-Anhydrosorbitol]	–	0.3
CC(C)C[C@H](N)C(=O)N[C@@H](C)C(=O)O [L-Leucyl-L-alanine] (H-Leu-Ala-OH)	–	-3.3
COc1ccc2c3c1O[C@H]1C[C@@H](O)C=C[C@@]31CCN(C)C2 [Galanthamine (hydrobromide)]	0.7	–
O=c1c(O[C@@H]2OC[C@H](O)[C@H](O)[C@H]2O)c(-c2ccc(O)c(O)c2)oc2cc(O)cc(O)c12 [Guaijaverin]	–	0.3
CCO[C@H]1O[C@@H]2O[C@@]3(C)CC[C@H]4[C@H](C)CC[C@@H]([C@H]1C)[C@@]24OO3 [Artemotil]	–	-3
CC[C@H](C)C(=O)O[C@H]1C[C@@H](C)C=C2C=C[C@H](C)[C@H](CC[C@@H]3C[C@@H](O)CC(=O)O3)[C@H]21 [Lovastatin]	–	5.2
C=CC(C)(CCC=C(C)C)OC(C)=O (centres unmarked) [Linalyl acetate]	–	0.2
CC(C)CCC1(O)O[C@H]2[C@H](O)[C@H]3[C@@H]4CC[C@@H]5C[C@@H](O[C@@H]6O[C@H](CO)[C@H](O)[C@H](O)[C@H]6O[C@@H]6O[C@H](CO)[C@@H](O)[C@H](O)[C@H]6O)CC[C@]5(C)[C@H]4CC[C@]3(C)[C@H]2[C@@H]1C (some centres unmarked) [Anemarrhenasaponin I]	–	-0.4
COC(=O)c1ccccc1C(=O)OC [Dimethyl phthalate]	–	0.5
CC[C@H]1NC(=O)[C@@H](NC(=O)c2ncccc2O)[C@@H](C)OC(=O)[C@H](c2ccccc2)NC(=O)[C@@H]2CC(=O)CCN2C(=O)[C@H](Cc2ccc(N(C)C)cc2)N(C)C(=O)[C@@H]2CCCN2C1=O [Pristinamycin IA] ({Picolinoyl(3-OH)}-T[dAbu]P[NMePhe(4-NMe2)][Pip(4-oxo)][Phg]; ester 1-C)	–	1.7
C[C@H](CC[C@@H](O[C@@H]1O[C@H](CO[C@@H]2O[C@H](CO)[C@@H](O)[C@H](O)[C@H]2O)[C@@H](O)[C@H](O)[C@H]1O)C(C)(C)O)[C@H]1CC[C@@]2(C)[C@@H]3CC=C4[C@@H](CC[C@H](O[C@@H]5O[C@H](CO[C@@H]6O[C@H](CO)[C@@H](O)[C@H](O)[C@H]6O)[C@@H](O)[C@H](O)[C@H]5O)C4(C)C)[C@]3(C)[C@H](O)C[C@]12C [Mogroside IV-A]	–	-0.2
C=C(C)[C@@H]1CC=C(/C=N/O)CC1 [Perillartine]	–	5.5
CCn1cnc2c(N)ncnc21 [9-Ethyladenine]	–	-1
Oc1nc(O)c2cn[nH]c2n1 [Oxypurinol]	–	-0.3
N[C@H](C(=O)O)[C@@H]1CC(Cl)=NO1 [Acivicin (hydrochloride)]	–	61.6
C[C@@H]1CC[C@]2(C(=O)O[C@@H]3O[C@H](CO)[C@@H](O)[C@H](O)[C@H]3O)CC[C@]3(C)C(=CC[C@@H]4[C@@]5(C)C[C@@H](O)[C@H](O)[C@@](C)(CO)[C@@H]5CC[C@]43C)[C@@H]2[C@]1(C)O [Niga-ichigoside F1]	–	-0.1
N[C@H]1C(O)O[C@H](CO)[C@@H](O)[C@@H]1O (some centres unmarked) [Glucosamine]	-0.3	–
C[C@H](CC(=O)C[C@@H](C)[C@H]1C[C@H](O)[C@@]2(C)C3=C(C(=O)C[C@]12C)[C@@]1(C)CCC(=O)C(C)(C)[C@@H]1C[C@@H]3O)C(=O)O [Ganoderic acid A]	–	1.1
CC1=C[C@H]2c3c(O)cc(-c4cc5ccc(O)cc5o4)cc3O[C@@]3(c4ccc(O)cc4O)Oc4cc(O)ccc4[C@H](C1)[C@@H]23 [Mulberrofuran G]	–	0.3
O=C1OCc2ccccc21 [Phthalide]	–	-0.1
O=c1ccn([C@@H]2O[C@H](CO)[C@@H](O)[C@H]2O)c(=O)[nH]1 [Uridine]	–	-0.2
O=C(O)Cc1cc(O)ccc1O[C@@H]1O[C@H](CO)[C@@H](O)[C@H](O)[C@H]1O [Phaseoloidin]	–	-1.3

Full records, looked up by structure. Order of values: OC43 Inhibition rate (OC43 Inhibition rate, 24 h) [%] | OC43 Inhibition rate [%]
`Oc1nc(O)c2cn[nH]c2n1` [Oxypurinol] in the list: – | -0.3
`COc1ccc2c3c1O[C@H]1C[C@@H](O)C=C[C@@]31CCN(C)C2` [Galanthamine (hydrobromide)] in the list: 0.7 | –
`O=C(O)Cc1cc(O)ccc1O[C@@H]1O[C@H](CO)[C@@H](O)[C@H](O)[C@H]1O` [Phaseoloidin] in the list: – | -1.3
`COC(=O)c1ccccc1C(=O)OC` [Dimethyl phthalate] in the list: – | 0.5
